Results deposited as PubChem BioAssay AID504764 (Drosophila RNAi Screening Center, 2011)
Purpose: 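Knock-downs that raise or lower a Notch target reporter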 (primary screen). Cells: Drosophila Kc167 cells. Knock-down reagent: long dsRNA against Drosophila genes. Time to read-out: about 5 days (4 days dsRNA, then 24 h after transfection). Challenge: transfection of constitutively active membrane-tethered Notch lacking the extracellular domain, read 24 h later. Detection: 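Light from a Notch-responsive E(spl)m3 luciferase reporter under active Notch, with control-promoter and no-Notch reporter wells to normalise; raw counts from paired wells a and b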. Reading the numbers: induced reporter light, run 1, well a and induced reporter light, run 1, well b: higher = more light from the Notch target reporter with active Notch; control promoter light, run 1, well a and control promoter light, run 1, well b: higher = more light from the viral control promoter (cell number, transfection, viability); uninduced reporter light, run 1, well a: higher = more light from the Notch target reporter without active Notch. Call rule: 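Wells with low control signal or poorly matching duplicates excluded; duplicates averaged; per source plate, z beyond ±2 for induced/control log2 ratio or beyond ±1.8 for induced/uninduced marks a hit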. Calls: active = modifier hit (raised or lowered Notch signal); inactive = not a hit.
The screen tested about 22,000 reagents; shown is a random part of those with a known target gene and a result. Of all reagents, 403 (1.9%) got an active call. 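Unnormalised raw counts per well; ratio z-scores behind the hit calls and whether each hit raises or lowers signal are not deposited.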 A number with no mark means an inactive call. Names joined by + are all predicted targets of the reagent. Not given: the amount of reagent.

The opening 2 records, to show the layout:
target gene,amplicon,"induced reporter light, run 1, well a","induced reporter light, run 1, well b","control promoter light, run 1, well a","control promoter light, run 1, well b","uninduced reporter light, run 1, well a"
Gr22b (GeneID 117492),DRSC20911,2.37e5,1.71e5,2.95e5,2.96e5,18555
Hsp70Bb + Hsp70Bbb,DRSC15885,83365,1.13e5,85440,68405,8320

The list itself, from the first entry:
target gene,amplicon,"induced reporter light, run 1, well a","induced reporter light, run 1, well b","control promoter light, run 1, well a","control promoter light, run 1, well b","uninduced reporter light, run 1, well a"
Gr22b (GeneID 117492),DRSC20911,2.37e5,1.71e5,2.95e5,2.96e5,18555
Hsp70Bb + Hsp70Bbb,DRSC15885,83365,1.13e5,85440,68405,8320
CG32507 (GeneID 318060),DRSC20421,1.23e5,1.20e5,1.26e5,1.14e5,8195
CG10737 (GeneID 37202),DRSC05999,85635,97320,1.69e5,1.96e5,7778
CG5708 (GeneID 34361),DRSC02881,1.06e5,1.28e5,56300,70750,15430
Zip102B (GeneID 43786),DRSC17155,1.03e5,1.08e5,1.89e5,1.90e5,7465
Vps8 (GeneID 38735),DRSC09705,2.62e5,2.07e5,3.36e5,3.45e5,13030
Decay (GeneID 42008),DRSC16930,2.28e5,2.14e5,2.32e5,2.50e5,18040
Usp32 (GeneID 40169),DRSC10979,40605,32870,30040,26630,2890
Vinc (GeneID 31201),DRSC18728,1.36e5,1.58e5,2.04e5,2.48e5,12215
Xport-A + Xport-B,DRSC15586,1.46e5,1.61e5,1.91e5,2.39e5,13655
OstDelta (GeneID 37029),DRSC06980,83760,87625,1.58e5,1.53e5,5428
Acbp5 (GeneID 39005),DRSC10548,1.65e5,1.32e5,1.44e5,1.22e5,7615
tw (GeneID 31024),DRSC18537,1.34e5,1.90e5,1.85e5,1.74e5,11720
RhoGAP54D (GeneID 36996),DRSC06990,27170,19785,21825,22610,2985
OS9 (GeneID 59167),DRSC02700,48785,41895,43350,35805,2492
CG34444 (GeneID 5740745),DRSC06435,93760,83915,1.06e5,1.15e5,9355
CG32755 (GeneID 318192),DRSC18397,1.28e5,1.40e5,2.67e5,2.16e5,9850
CG14219 (GeneID 32951),DRSC19576,85420 (active),76685,1.66e5,1.32e5,10620
BBS5 (GeneID 40600),DRSC12168,1.21e5,1.08e5,1.00e5,1.15e5,8935
hbn (GeneID 47894),DRSC04082,3185,1810,3185,3590,505
hbn (GeneID 47894),DRSC04238,58530,49590,52255,69450,3350
hbn (GeneID 47894),DRSC04239,30560,31395,26795,21970,1890
Afti (GeneID 41744),DRSC16440,1.15e5,1.12e5,56570,57850,10265
Rab26 (GeneID 40359),DRSC11837,20295,17730,7178,7475,5342
Rab26 (GeneID 40359),DRSC11838,1.48e5,1.10e5,1.15e5,78770,6455
Rab26 (GeneID 40359),DRSC11839,1.01e5,96770,83975,79305,5692
CG14915 (GeneID 34536),DRSC02399,95900,1.22e5,62860,75270,16080
PolD2 (GeneID 38228),DRSC08147,72940,80105,1.36e5,1.85e5,5128
Naa35 (GeneID 37866),DRSC04447,1.76e5,1.88e5,1.81e5,2.15e5,12015
14-3-3zeta (GeneID 36059),DRSC05028,94360,92765,92915,89685,7400
Gr59e (GeneID 37725),DRSC04276,2.13e5,2.22e5,2.44e5,2.03e5,17905
CG14408 (GeneID 32407),DRSC19595,1.48e5,1.33e5,2.16e5,1.82e5,13355
Panx (GeneID 37434),DRSC04563,46365,40500,46985,69395,2605
CG17122 (GeneID 40226),DRSC10245,1.43e5,1.15e5,1.37e5,1.35e5,7165
Mnr (GeneID 33098),DRSC20549,83630,76120,84790,1.10e5,9905
Mnr (GeneID 33098),DRSC20550,72320,1.01e5,74165,1.17e5,9020
CG4042 (GeneID 40291),DRSC11751,1.73e5,1.25e5,1.34e5,86315,8930
CR18275 (GeneID 8674032),DRSC18151,1.46e5,1.36e5,2.73e5,2.29e5,11430
CG34282 (GeneID 42248),DRSC16298,2.14e5,1.77e5,1.74e5,1.78e5,15700
CG9396 (GeneID 41156),DRSC16487,66760,74090,64690,48855,5780
CG4957 (GeneID 34374),DRSC02793,1.30e5,1.30e5,93635,1.37e5,14065
RYBP (GeneID 37601),DRSC04117,81155,83815,45115,53490,4310
SkpB (GeneID 36298),DRSC07683,1.12e5,1.26e5,1.62e5,1.77e5,11570
CG18179 (GeneID 39124),DRSC10303,1.71e5,1.26e5,1.34e5,1.35e5,12970
CG17475 (GeneID 42069),DRSC15238,2.29e5,2.51e5,2.84e5,2.43e5,20265
Ugt37A2 (GeneID 41573),DRSC15861,69890,52645,80090,61610,3965
mus81 (GeneID 31044),DRSC18180,1.04e5,1.07e5,1.46e5,1.72e5,7250
mus81 (GeneID 31044),DRSC18644,1.10e5,1.09e5,1.90e5,1.18e5,9080
Cdc2rk (GeneID 36051),DRSC07590,1.97e5,1.68e5,2.11e5,2.30e5,15795
